These results are taken from the supplement of paper PMC11006884.

The entries are a selection whose mix differs from that of the whole data set. This is a noisy data set.

Compound in this test: COC(=O)/C=C/c1ccccc1 [methyl cinnamate]
The experiment in a line: log2 ratio of iodoacetamide-alkyne labeling of the cysteine site, DMSO over compound (competition); higher = stronger covalent engagement of the cysteine by the compound, active = 1 or more. To be noted: 500 µM; treatment time 1 h; system: HEK293T cell lysate. In a few lines: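 Electrophile (500 µM) or vehicle was added to HEK293T lysate (2 mg/mL) for 1 h at ambient temperature before iodoacetamide alkyne labelling (1 h) and click coupling to sCIP-TMT reagents. After pooling, overnight trypsin digestion at 37 °C, streptavidin enrichment and acid elution, peptides were measured by Orbitrap Eclipse LC-MS/MS with FAIMS and quantified in FragPipe. Each cysteine's log2 competition ratio compares mean control-channel with mean compound-channel reporter intensity, control over compound. Data came from duplicate channels across three replicates, excluding cysteines quantified in only one replicate.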
Take XAB2 C66 (UniProt Q9HCS7): the “log2 ratio of iodoacetamide-alkyne labeling” value (“log2 ratio” below) is inactive: 0.325.

SENP3 C532 (UniProt Q9H4L4): the “log2 ratio” value is inactive: 0.327. For RABEP2 C115 (UniProt Q9H5N1), the “log2 ratio” value was inactive: 0.61. In the case of PEAK1 C993 (UniProt Q9H792) it was inactive: 0.181.

Regarding RAB18 C155 (UniProt Q9NP72), the “log2 ratio” value is inactive: 0.515. In the case of MDN1 C991 (UniProt Q9NU22) it was inactive: -0.0771; in that of PPA2 C302 (UniProt Q9H2U2), inactive: 0.0348. On to PHAX C51 (UniProt Q9H814), for which the “log2 ratio” value is inactive: 0.416. In the case of ACBD3 C129 (UniProt Q9H3P7) it was inactive: 0.122. For UNC45A C503 (UniProt Q9H3U1), the “log2 ratio” value is inactive: 0.348. Consider SMC4 C271 (UniProt Q9NTJ3), for which the “log2 ratio” value was inactive: -0.437. Turning to MBNL1 C53 (UniProt Q9NR56), the “log2 ratio” value is inactive: 0.225. In the case of OLA1 C117 (UniProt Q9NTK5) it was inactive: 0.176; in that of GEMIN7 C121 (UniProt Q9H840), inactive: 0.283; in that of OSTC C14 (UniProt Q9NRP0), inactive: 0.0328. In the case of MYO10 C1517 (UniProt Q9HD67) it was inactive: 0.0394.
